Measured values taken from paper PMC7265490.
Results are given in words; binding and its absence hold for the method and conditions named. Binding seen in cells or lysates may run through a third protein. Binding can be weak; no strength is given.

The chains behind the UniProt entries cited, without tags or fusion partners. Where a name states a change or a piece, a line headed by the entry shows the natural chain unless it says otherwise.
UniProt Q9UKV8: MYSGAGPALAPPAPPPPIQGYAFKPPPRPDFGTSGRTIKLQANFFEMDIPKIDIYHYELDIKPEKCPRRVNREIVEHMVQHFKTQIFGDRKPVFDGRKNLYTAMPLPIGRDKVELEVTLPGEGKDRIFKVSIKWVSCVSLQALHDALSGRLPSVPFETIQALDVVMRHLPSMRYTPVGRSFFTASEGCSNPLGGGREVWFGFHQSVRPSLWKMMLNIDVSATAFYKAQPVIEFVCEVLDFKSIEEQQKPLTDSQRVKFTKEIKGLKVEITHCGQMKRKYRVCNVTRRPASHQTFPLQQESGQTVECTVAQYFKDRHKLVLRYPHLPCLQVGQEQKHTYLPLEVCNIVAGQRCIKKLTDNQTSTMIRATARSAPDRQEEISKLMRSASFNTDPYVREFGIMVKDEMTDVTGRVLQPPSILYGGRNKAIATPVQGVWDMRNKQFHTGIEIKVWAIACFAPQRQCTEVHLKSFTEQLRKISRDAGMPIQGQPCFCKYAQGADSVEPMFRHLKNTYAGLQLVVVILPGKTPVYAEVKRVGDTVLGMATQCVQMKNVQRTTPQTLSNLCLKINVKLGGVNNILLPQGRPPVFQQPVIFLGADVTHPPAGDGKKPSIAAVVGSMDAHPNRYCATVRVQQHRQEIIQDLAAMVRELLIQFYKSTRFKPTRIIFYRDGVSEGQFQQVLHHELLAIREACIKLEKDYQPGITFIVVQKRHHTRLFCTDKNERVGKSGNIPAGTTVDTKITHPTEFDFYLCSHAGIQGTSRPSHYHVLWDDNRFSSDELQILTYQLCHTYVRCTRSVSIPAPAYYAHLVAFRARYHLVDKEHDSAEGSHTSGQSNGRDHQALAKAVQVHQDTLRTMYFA

Target: FLAG-tagged AGO2-ΔPAZ (AGO2 with a complete PAZ domain deletion) (UniProt Q9UKV8)
Assay: co-IP; FLAG-tagged AGO2 constructs or GFP transfected into HEK293T; lysis in modRIPA buffer 48 h after transfection; anti-FLAG M2 magnetic beads, 4 °C overnight; washed five times with TBS; beads with or without RNase A/T1 (20 min, room temperature); Western blot for TUT4, TUT7 and AGO2

binding: binds
B1: endogenous TUT7 (ZCCHC6/TENT3B/PAPD6) (enzyme, UniProt Q5VYS8 1-1495)
chain: MGDTAKPYFVKRTKDRGTMDDDDFRRGHPQQDYLIIDDHAKGHGSKMEKGLQKKKITPGNYGNTPRKGPCAVSSNPYAFKNPIYSQPAWMNDSHKDQSKRWLSDEHTGNSDNWREFKPGPRIPVINRQRKDSFQENEDGYRWQDTRGCRTVRRLFHKDLTSLETTSEMEAGSPENKKQRSRPRKPRKTRNEENEQDGDLEGPVIDESVLSTKELLGLQQAEERLKRDCIDRLKRRPRNYPTAKYTCRLCDVLIESIAFAHKHIKEKRHKKNIKEKQEEELLTTLPPPTPSQINAVGIAIDKVVQEFGLHNENLEQRLEIKRIMENVFQHKLPDCSLRLYGSSCSRLGFKNSDVNIDIQFPAIMSQPDVLLLVQECLKNSDSFIDVDADFHARVPVVVCREKQSGLLCKVSAGNENACLTTKHLTALGKLEPKLVPLVIAFRYWAKLCSIDRPEEGGLPPYVFALMAIFFLQQRKEPLLPVYLGSWIEGFSLSKLGNFNLQDIEKDVVIWEHTDSAAGDTGITKEEAPRETPIKRGQVSLILDVKHQPSVPVGQLWVELLRFYALEFNLADLVISIRVKELVSRELKDWPKKRIAIEDPYSVKRNVARTLNSQPVFEYILHCLRTTYKYFALPHKITKSSLLKPLNAITCISEHSKEVINHHPDVQTKDDKLKNSVLAQGPGATSSAANTCKVQPLTLKETAESFGSPPKEEMGNEHISVHPENSDCIQADVNSDDYKGDKVYHPETGRKNEKEKVGRKGKHLLTVDQKRGEHVVCGSTRNNESESTLDLEGFQNPTAKECEGLATLDNKADLDGESTEGTEELEDSLNHFTHSVQGQTSEMIPSDEEEEDDEEEEEEEEPRLTINQREDEDGMANEDELDNTYTGSGDEDALSEEDDELGEAAKYEDVKECGKHVERALLVELNKISLKEENVCEEKNSPVDQSDFFYEFSKLIFTKGKSPTVVCSLCKREGHLKKDCPEDFKRIQLEPLPPLTPKFLNILDQVCIQCYKDFSPTIIEDQAREHIRQNLESFIRQDFPGTKLSLFGSSKNGFGFKQSDLDVCMTINGLETAEGLDCVRTIEELARVLRKHSGLRNILPITTAKVPIVKFFHLRSGLEVDISLYNTLALHNTRLLSAYSAIDPRVKYLCYTMKVFTKMCDIGDASRGSLSSYAYTLMVLYFLQQRNPPVIPVLQEIYKGEKKPEIFVDGWNIYFFDQIDELPTYWSECGKNTESVGQLWLGLLRFYTEEFDFKEHVISIRRKSLLTTFKKQWTSKYIVIEDPFDLNHNLGAGLSRKMTNFIMKAFINGRRVFGIPVKGFPKDYPSKMEYFFDPDVLTEGELAPNDRCCRICGKIGHFMKDCPMRRKVRRRRDQEDALNQRYPENKEKRSKEDKEIHNKYTEREVSTKEDKPIQCTPQKAKPMRAAADLGREKILRPPVEKWKRQDDKDLREKRCFICGREGHIKKECPQFKGSSGSLSSKYMTQGKASAKRTQQES
